Test results as given in PubChem BioAssay AID504444 (National Center for Advancing Translational Sciences (NCATS), 2011).
About 7,500 (2.1%) of roughly 360,000 compounds were called active. Inconclusive means that the source gave no clear call. Such entries were picked first, then a sample of the others. Calls follow the shape of the dose curve; as a rule, active = well fitted inhibition curve with a large enough effect; inconclusive = small, poorly fitted or top-dose-only effect, or effect the other way; inactive = flat fitted curve, though single readings scatter. Potencies beside an inconclusive call are fits to weak or partial responses and may not hold up.

Test: Nrf2 qHTS screen for inhibitors; also: nearly all actives have a fitted effect of over 60% in size
Details: A549 ARE-Fluc reporter, luciferase luminescence, 18-24 h; series mostly up to 46 µM
How it was run: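 Two sequential reads on A549 ARE_Fluc cells exposed to compound for 18-24 h: a CellTiter-Fluor fluorescence read for viability, then a luciferase luminescence read for Nrf2/ARE activity.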
Potency is read from the fitted curve at half-maximal effect.

SMILES | Potency
Cc1ccc(Oc2nc(-c3ccccn3)nc3ccccc23)cc1 | inactive
OC(CSc1c(Cl)cccc1Cl)CN1CCN(c2ccccc2F)CC1 (configuration not stated) | inconclusive: 20.6 µM [falling, single point]
COc1ccc(-c2cc(C(F)(F)F)c(C#N)c(SCC(=O)O)n2)cc1 | inactive
O=C(CCS(=O)(=O)c1ccccc1)Nc1ccc(Cl)cn1 | inconclusive: 23.1 µM [activator, single point]
O=C(COCc1cc(-c2ccc3c(c2)OCO3)on1)Nc1cccnc1Cl | inconclusive: 8.2 µM [activator, partial curve, poor fit]
O=C(CCCn1c(=S)[nH]c2ccccc2c1=O)NCCSCc1ccccc1 | inconclusive: 20.6 µM [falling, single point]
CCN(CC)S(=O)(=O)c1ccc(C)c(N=C=S)c1 | inconclusive: 18.4 µM [falling, single point]
CN(Cc1nc(-c2ccc(Cl)cc2)no1)C(=O)c1ccc2c(c1)OCO2 | inconclusive: 29.1 µM [falling, single point]
CN(C)c1nc(OCCNC(=O)COc2ccc(Cl)cc2Cl)nc(N(C)C)n1 | inconclusive: 29.1 µM [falling, partial curve, poor fit]
O=c1c2ccccc2nnn1-c1ccccc1 | inconclusive: 29.1 µM [activator, single point]
CCCCNC(=NCc1cccc(C(F)(F)F)c1)Nc1ccccc1 | inconclusive: 29.1 µM [activator, single point]
O=C(CSc1nc(-c2ccccc2)c(-c2ccccc2)o1)N1CCOCC1 | inconclusive: 20.6 µM [falling, single point]
Cc1ccc(C2CC(=O)Nc3cc4c(cc32)OCCO4)s1 (configuration not stated) | inconclusive: 0.517 µM [falling, partial curve, poor fit]
COc1ccccc1N1CCN(S(=O)(=O)c2cc3[nH]c(=O)c(=O)[nH]c3cc2C)CC1 | inconclusive: 25.9 µM [activator, single point]
Cc1ccc(CCNc2ncnc3onc(C)c23)cc1 | active: 9.2 µM
COc1ccc(CCN(Cc2cccs2)S(=O)(=O)c2ccc(-n3cnnn3)cc2)cc1OC | inconclusive: 16.4 µM [falling, partial curve, poor fit]
COc1cccc(CN(C)CC(=O)Nc2c(C)cccc2C(C)C)c1 | inconclusive: 29.1 µM [falling, single point]
COC(=O)c1ccc(Cn2cnc3c(cnn3-c3ccc(F)cc3)c2=O)o1 | inactive
CC(C)N(Cc1nc(-c2ccc(Cl)cc2)no1)C(=O)CCCN1C(=O)c2ccccc2C1=O | inconclusive: 9.2 µM [falling, partial curve, poor fit]
COc1cccc(/C=C/c2ccc3cccc(O)c3n2)c1OC | inactive
COc1ccc(-c2nn(-c3ccccc3)cc2/C=C2/SC(=S)N(CCCC(=O)O)C2=O)c(C)c1 | inconclusive: 14.6 µM [falling, partial curve, poor fit]

Some of these compounds in order of number of heavy atoms, ascending:
SMILES | Potency
Cc1ccc(CCNc2ncnc3onc(C)c23)cc1 | active: 9.2 µM
COc1cccc(CN(C)CC(=O)Nc2c(C)cccc2C(C)C)c1 | inconclusive: 29.1 µM [falling, single point]
CN(Cc1nc(-c2ccc(Cl)cc2)no1)C(=O)c1ccc2c(c1)OCO2 | inconclusive: 29.1 µM [falling, single point]

Later entries:

SMILES | Potency
O=C(NCc1ccccc1)N(Cc1nc2ccccc2c(=O)[nH]1)C1CCCC1 | inconclusive: 6.51 µM [falling, partial curve, poor fit]
CCC1(c2ccc(F)cc2)NC(=O)N(CC(=O)Nc2ccc(N3CCCCC3)cc2)C1=O (configuration not stated) | inactive
COC(=O)c1cc2oc3ccccc3c2n1Cc1c(F)cccc1Cl | inactive
COC(=O)C(NC(=O)c1ccccc1)c1ccccc1 (configuration not stated) | inactive
CC1CC(C)CN(c2oc(-c3ccco3)nc2C#N)C1 (configuration not stated) | inactive
Cc1ccc(C(=O)NCCc2csc(C)n2)cc1 | inconclusive: 5.8 µM [activator, single point]
C/C(=N\NC(=O)COc1ccc(C)cc1C(C)C)c1ccc(-n2ccnc2)cc1 | inconclusive: 29.1 µM [falling, single point]
Cc1ccc(Cn2nnc3c(=O)[nH]c(C(=O)NCc4ccco4)nc32)cc1 | inconclusive: 20.6 µM [falling, single point]
COc1ccc(N2CCN(C(=O)c3ccc4nc(N5CCC(C)CC5)sc4c3)CC2)cc1 | inconclusive: 4.61 µM [activator, partial curve]
O=C(CSc1ncnc2c1cnn2-c1ccc(F)cc1)NC1CCCC1 | active: 5.17 µM
CCN1CCN(C(=O)c2ccc(-c3nc4ccccc4s3)s2)CC1 | inconclusive: 0.517 µM [activator, full curve]
O=C(CCCN1C(=O)c2cccc3cccc(c23)C1=O)NCc1cccnc1 | inconclusive: 14.6 µM [falling, partial curve]
O=C(O)/C=C/c1cn(Cc2ccccc2)nc1-c1ccccc1 | inconclusive: 16.4 µM [falling, partial curve, poor fit]
COc1ccc(NC(=O)c2ccc(-n3cncn3)c([N+](=O)[O-])c2)cc1 | inconclusive: 0.92 µM [falling, full curve, poor fit]
O=S(=O)(N/N=C1\CC(c2ccccc2)Oc2ccccc21)c1ccccc1 (configuration not stated) | inconclusive: 20.6 µM [falling, single point]
CCOC(=O)c1sc(NC(=O)c2ccc3ncsc3c2)nc1C | inconclusive: 0.291 µM [falling, full curve, poor fit]
Cc1c(NC(=O)Nc2cccc(C#N)c2)c(=O)n(-c2ccccc2)n1C | inconclusive: 3.26 µM [activator, full curve]
O=C(CSc1nnc(NC2CCCCC2)s1)Nc1ccc2c(c1)C(=O)c1ccccc1C2=O | inconclusive: 2.31 µM [activator, full curve]
CCOC(=O)C1=C(CN2CCN(C(=O)c3ccco3)CC2)NC(=O)NC1c1ccc(Cl)cc1 (configuration not stated) | inconclusive: 13 µM [falling, partial curve]
O=C(OCC1OC(n2cnc3c(N(C(=O)c4ccccc4)C(=O)c4ccccc4)ncnc32)C(O)C1F)c1ccccc1 (configuration not stated) | active: 16.4 µM
COc1ccccc1NS(=O)(=O)c1ccc(C)c(NC(=O)NC2CCCCC2)c1 | inconclusive: 13 µM [falling, partial curve, poor fit]
